According to PMC3521698:
No constants are given. Whether binding was seen depends on the method and setting. In cells and extracts the contact can be indirect. Some entries that bind do so weakly or less than the wild type.

Protein sequences, listed by entry. Tags and fused reporters are not part of them. Lines headed by an entry give the natural chain unless they say otherwise; changes in a name come on top. Chains listed by the source or under a name are the forms on record and can include a tag or linker. Residues count along the entry.
UniProt Q04206: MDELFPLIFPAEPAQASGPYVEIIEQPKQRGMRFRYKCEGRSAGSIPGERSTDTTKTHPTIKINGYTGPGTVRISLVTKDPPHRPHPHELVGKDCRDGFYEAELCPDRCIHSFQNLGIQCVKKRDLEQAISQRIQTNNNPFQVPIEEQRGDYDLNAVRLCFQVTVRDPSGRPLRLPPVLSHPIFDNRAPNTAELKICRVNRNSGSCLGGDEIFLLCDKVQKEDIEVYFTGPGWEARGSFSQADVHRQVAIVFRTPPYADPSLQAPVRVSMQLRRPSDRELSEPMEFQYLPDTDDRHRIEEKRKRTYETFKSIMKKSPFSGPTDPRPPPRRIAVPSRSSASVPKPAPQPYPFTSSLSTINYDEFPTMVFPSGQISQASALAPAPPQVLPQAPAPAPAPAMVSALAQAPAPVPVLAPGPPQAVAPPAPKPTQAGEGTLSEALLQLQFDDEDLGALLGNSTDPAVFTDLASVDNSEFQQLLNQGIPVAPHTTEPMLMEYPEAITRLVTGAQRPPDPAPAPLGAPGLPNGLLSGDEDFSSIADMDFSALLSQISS
UniProt P19838: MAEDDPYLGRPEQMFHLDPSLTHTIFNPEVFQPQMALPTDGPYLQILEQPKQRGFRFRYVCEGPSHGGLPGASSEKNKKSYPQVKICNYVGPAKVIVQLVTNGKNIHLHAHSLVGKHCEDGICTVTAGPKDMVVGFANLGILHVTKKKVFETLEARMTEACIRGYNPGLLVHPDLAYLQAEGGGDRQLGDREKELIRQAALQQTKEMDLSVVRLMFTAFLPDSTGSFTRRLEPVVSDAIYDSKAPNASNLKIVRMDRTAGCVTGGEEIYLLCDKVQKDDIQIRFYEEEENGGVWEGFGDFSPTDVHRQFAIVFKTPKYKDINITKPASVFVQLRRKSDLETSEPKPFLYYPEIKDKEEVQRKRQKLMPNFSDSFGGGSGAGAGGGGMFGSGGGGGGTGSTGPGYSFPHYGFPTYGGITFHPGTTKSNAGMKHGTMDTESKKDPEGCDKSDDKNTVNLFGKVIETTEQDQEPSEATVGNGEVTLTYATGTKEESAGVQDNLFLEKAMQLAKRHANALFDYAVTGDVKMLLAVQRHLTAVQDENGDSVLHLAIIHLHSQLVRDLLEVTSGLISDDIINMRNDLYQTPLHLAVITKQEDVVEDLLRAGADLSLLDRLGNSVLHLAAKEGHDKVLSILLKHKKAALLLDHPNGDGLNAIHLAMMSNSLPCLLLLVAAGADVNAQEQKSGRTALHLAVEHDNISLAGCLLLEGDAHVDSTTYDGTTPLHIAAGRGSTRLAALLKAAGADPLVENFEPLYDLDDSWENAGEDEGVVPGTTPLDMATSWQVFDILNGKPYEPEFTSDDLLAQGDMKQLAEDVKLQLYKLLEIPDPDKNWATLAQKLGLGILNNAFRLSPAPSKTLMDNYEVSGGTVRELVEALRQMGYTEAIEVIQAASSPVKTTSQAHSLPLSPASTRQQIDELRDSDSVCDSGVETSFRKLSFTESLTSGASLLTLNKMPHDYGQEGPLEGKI
V5-tagged p50: residues 1-433 of P19838

Legend:
Test in all cases: co-IP
FLAG-tagged RelA (human) = FLAG-tagged RelA (human) (UniProt Q04206)
[1] = biological target: p50 (human (endogenous in HEK-293T and HeLa)) (UniProt P19838)
V5-tagged p50 = V5-tagged p50 (UniProt P19838)

Substance	binding (FLAG-tagged RelA (human))	further results
p50 (from UniProt P19838 1-433)	binds	
RelA (endogenous) (from UniProt Q04206-1 1-551)		binding [1]: binds
p105 (from UniProt P19838 1-968)	binds	
FLAG-tagged RelA (from UniProt Q04206-1 1-551)		binding (V5-tagged p50): binds
